Test results reported in patent publication US20110217233A1.
These are yes or no findings as the source states them, for the method shown. Some binding calls cover weakened binding; strength is not graded here.

Sequences of proteins named here, by UniProt entry; tags and fusion partners are left off. Residues count along the entry.
UniProt P16070, residues 21-742: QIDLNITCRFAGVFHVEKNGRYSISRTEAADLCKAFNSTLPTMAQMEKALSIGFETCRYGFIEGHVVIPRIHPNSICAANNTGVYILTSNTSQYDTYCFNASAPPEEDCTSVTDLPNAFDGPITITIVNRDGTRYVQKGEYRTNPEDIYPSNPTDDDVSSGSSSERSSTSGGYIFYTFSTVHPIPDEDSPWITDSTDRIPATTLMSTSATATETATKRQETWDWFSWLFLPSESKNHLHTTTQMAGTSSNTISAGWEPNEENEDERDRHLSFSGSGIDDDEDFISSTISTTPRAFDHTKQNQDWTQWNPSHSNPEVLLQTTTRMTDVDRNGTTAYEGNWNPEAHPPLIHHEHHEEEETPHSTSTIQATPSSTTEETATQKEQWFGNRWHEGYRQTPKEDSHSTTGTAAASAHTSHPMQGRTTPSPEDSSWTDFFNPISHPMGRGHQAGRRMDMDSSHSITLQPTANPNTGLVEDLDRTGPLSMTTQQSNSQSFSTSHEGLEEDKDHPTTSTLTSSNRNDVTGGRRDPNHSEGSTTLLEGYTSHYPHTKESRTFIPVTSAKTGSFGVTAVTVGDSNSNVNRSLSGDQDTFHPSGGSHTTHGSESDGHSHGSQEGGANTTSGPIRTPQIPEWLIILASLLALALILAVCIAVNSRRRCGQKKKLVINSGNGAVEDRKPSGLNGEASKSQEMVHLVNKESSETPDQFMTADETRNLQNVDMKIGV

Molecular target: CD44 of SKOV3 cells (human) (UniProt P16070)
Experiment: non-reducing immunoblot with B-F24 of SKOV3 cells cultured 20 hr with 1 or 10 µM Å6 (CD44 self-association)

Substance: CD44 of SKOV3 cells (from UniProt P16070 21-742) (receptor)
- binding: binds
